Tested on: healthy men
Experiment: Study NAP1001: single IV dose in healthy men (platelet counts, safety)
Assay type: in vivo, human
Conditions: for dose required to achieve a 2-3-fold (2-3.5-fold) platelet elevation in humans, fold lower compared to mice: humans vs mice; for dose required to achieve a 2-3-fold (2-3.5-fold) platelet elevation in humans, fold lower compared to rats: humans vs rats
Protocol: In the FIH, single dose, Phase 1 clinical study NAP1001, 40 healthy men were enrolled, and 30 subjects received a single IV dose of RWJ-800088 as a 5-mg/mL solution in saline (dose range 0.375 to 3 μg/kg); 10 subjects received placebo. […] Thirty-three (83%) of 40 subjects reported at least 1 treatment-emergent adverse event throughout the study. Similar proportions of subjects reported treatment-emergent adverse events following administration of placebo (9 [90%] of 10 subjects) and RWJ-800088 (24 [80%] of 30 subjects). […] Mean platelet counts increased with increasing RWJ-800088 dose compared with placebo from Day 6 onwards, peaking at Days 10 to 12 before gradually returning to baseline by Day 21 (FIG. 19).
The ratio of the maximum platelet counts to the baseline platelet counts following single escalating doses of RWJ-800088 to mice, rats, dogs, rhesus monkeys and human healthy volunteers is shown in Table 5. The dose required to achieve a 2-3.5-fold elevation in humans is ˜100-fold lower compared to mice, ˜1,000-fold lower compared to rats and >10,000-fold lower compared to canines and NHPs. […] The species differences in potency has been described for other TPO mimetics in the literature and is attributed to differences in receptor affinity (Erickson-Miller C L, et al. Discovery and characterization of a selective, nonpeptidyl thrombopoietin receptor agonist. Exp. Hematol. 2005; 33:85-93). […] It is discovered that the dose of RWJ-800088 that produces a survival benefit and protects against vascular and organ injury is the dose that produces a 2-4 fold elevation of platelets (Table 6).

With “methoxypolyethyleneglycol20000-propionyl-L-Isoleucyl-L-Glutamyl-Glycyl-L-Prolyl-L-Threonyl-L-Leucyl-L-Arginyl-L-Glutaminyl-L-2-Naphthylalanyl-L-Leucyl-L-Alanyl-L-Alanyl-L-Arginyl-Sarcosyl-Ne-(methoxypolyethyleneglycol20000-propionyl-L-Isoleucyl-L-Glutamyl-Glycyl-L-Prolyl-L-Threonyl-L-Leucyl-L-Arginyl-L-Glutaminyl-L-2-Naphthylalanyl-L-Leucyl-L-Alanyl-L-Alanyl-L-Arginyl-Sarcosyl-)-Lysinamide [RWJ-800088]” the “dose required to achieve a 2-3-fold (2-3.5-fold) platelet elevation in humans, fold lower compared to canines and NHPs” value (humans vs canines and NHPs) was > 10,000 fold, the “dose required to achieve a 2-3-fold (2-3.5-fold) platelet elevation in humans, fold lower compared to mice” value was ~100 fold and the “dose required to achieve a 2-3-fold (2-3.5-fold) platelet elevation in humans, fold lower compared to mice” value (listed as TPOm) was “about 100 fold”. The “dose required to achieve a 2-3-fold (2-3.5-fold) platelet elevation in humans, fold lower compared to rats” value was ~1,000 fold and the “dose required to achieve a 2-3-fold (2-3.5-fold) platelet elevation in humans, fold lower compared to rats” value (listed as TPOm) was “about 1,000 fold”.
